## Primary screen of a compound library

Source: ChEMBL document CHEMBL3988442, “University of Dundee, Small-Polar-MMV Screening Library” (2021).

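Whole-parasite assay of Trypanosoma brucei over 72 hours; the read-out is not stated. Compounds at 30 µM. The record gives no direction; compounds that gave an IC50 in retests scored well above the rest, so higher reads as stronger inhibition. Values scatter widely below zero; nearly all retest evidence comes from the higher of the two concentrations used. Size under these conditions: about 64,000 compounds, about 940 of them at 50% or above in at least one test.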

Values are the deposited “Percent Effect”, in %.
The record does not define 0% and 100%; most values in the screen are far below 50% and negative numbers occur (in some assays of this library far below -100).
The compounds are a random part of those screened.

N#Cc1ccc(NC2CCN(c3ncccn3)CC2)cc1C(F)(F)F gave -15.64%.
CCc1noc(C)c1C(=O)Nc1cnn(CC(=O)NC2CCCC2)c1 gave -52.77%.
CSc1ccc(NC(=O)NCC(O)C(C)C)cc1F (configuration not stated) gave -17.43%.
COCC(=O)N1CCCCC1c1ccnc(Nc2ncc(C)s2)n1 (configuration not stated) gave 16.03%.
CC(C)c1nc(C2CCCN(C(=O)Cc3cccnc3)C2)no1 (configuration not stated) gave -29.19%.
CC1CCCN(C(=O)NCC(F)F)C1 (configuration not stated) gave -28.32%.
Cc1nn(C)c(C)c1-c1nc2cc(S(=O)(=O)N3CCCC3)ccc2n1C gave -22.1%.
COCCN1CCN(CCCS(C)(=O)=O)CC1C (configuration not stated) gave -9.237%.
Cc1ncc(C(=O)N2CCC(N3CCc4ccccc4C3)CC2)c(O)n1 gave -33.15%.
CC(C)N(C)Cc1cnc2n1CCN(Cc1cccc(F)c1)C2.O=C(O)C(F)(F)F.O=C(O)C(F)(F)F gave -6.591%.
O=C1CC(N(C(=O)c2ccc(-n3cccc3)cc2)C2CC2)C(=O)N1 (configuration not stated) gave -44.45%.
CSCCC(NC(=O)c1ccc2ccccc2n1)C(=O)NC(C)C (configuration not stated) gave -22.21%.
CC(C)OCCN1CCN(C(=O)c2cccc(-n3cccn3)n2)CC1 gave -30.2%.
Cc1ccccc1OCCC(=O)NC(C)c1nnc2n1CCCCC2 (configuration not stated) gave -15.1%.
O=C(c1ccco1)N1CCC(n2nc(-c3ccco3)ccc2=O)CC1 gave 9.387%.
Cc1nc2c(c(NCc3cnc4c(c3)CCC4)n1)CNC2 gave -19.82%.
Cc1ncc(CN2Cc3ccccc3O[C@]3(CC[C@H](CO)CC3)C2)cn1.Cl gave 14.42%.
NC(=O)CN1CCCC1c1cncc(Oc2ccc(Cl)cc2)n1 (configuration not stated) gave 6.42%.
Cc1nc(CN2CCCC(NCc3ccc(C(N)=O)cc3)C2)no1 (configuration not stated) gave -7.094%.
COc1ccc2c(c1)Cc1c-2nc(N)c(C#N)c1C1CCOC1 (configuration not stated) gave -35.2%.
Cl.O=C1CC2(CCCNC2)C(=O)N1Cc1cccc(Cl)c1 (configuration not stated) gave 2.467%.
CCOC(=O)CC1CCCCN1C(=O)CCc1cc(Cl)no1 (configuration not stated) gave -36.9%.
CCc1cc(CNCc2ccccc2N(C)C2CCN(C)CC2)on1 gave 41.02%.
Cc1cnn(CC2CCCCN2C(=O)CCCc2nc(C)no2)c1 (configuration not stated) gave -5.049%.
CCn1c(=O)n(CC)c2cc(S(N)(=O)=O)ccc21 gave -15.04%.
[H][C@@]12CCN(c3cnccn3)C[C@@]1(C(=O)O)CCCN2Cc1ccncc1 gave -11.6%.
Cc1cncc(C2CCCN(Cc3cccn3C)C2)n1 (configuration not stated) gave 32.78%.
CCS(=O)(=O)N1CCN(C(=O)c2cnc3[nH]nc(C)c3c2)CC1 gave 18.73%.
CC(C)n1cnnc1CN1C(=O)CCc2ccccc21 gave 3.942%.
COCCN(CCOC)C(=O)c1ccc(Cn2nc(C)cc2C)cc1 gave -9.475%.
CN(Cc1ccco1)C(=O)CN1CCCCC1Cn1cccn1 (configuration not stated) gave 3.282%.
Cc1ccc(S(C)(=O)=O)cc1C(=O)NS(=O)(=O)c1ccc(Cl)cc1 gave -20.93%.
CC(=O)N1Cc2nccn2CC(CNC(=O)c2cnccn2)C1 (configuration not stated) gave -67.19%.
CCN(C(=O)CN1CCCC1c1c(C)nn(C)c1OC)C1CC1 (configuration not stated) gave -39.52%.
COc1ccccc1CC(=O)N1CCCC(c2nccn2CC(N)=O)C1 (configuration not stated) gave -52.55%.
Cn1ncc(NC(=O)Cn2ccc(-c3ccc(F)cc3)n2)n1 gave 0.3094%.
O=C(CCOc1ccccc1)N1CCCC(n2cncn2)C1 (configuration not stated) gave -10.01%.